# Measured values published in PMC11684803.
# Protein sequences, listed by entry. Tags and fused reporters are not part of them.
# UniProt Q9Y5K6: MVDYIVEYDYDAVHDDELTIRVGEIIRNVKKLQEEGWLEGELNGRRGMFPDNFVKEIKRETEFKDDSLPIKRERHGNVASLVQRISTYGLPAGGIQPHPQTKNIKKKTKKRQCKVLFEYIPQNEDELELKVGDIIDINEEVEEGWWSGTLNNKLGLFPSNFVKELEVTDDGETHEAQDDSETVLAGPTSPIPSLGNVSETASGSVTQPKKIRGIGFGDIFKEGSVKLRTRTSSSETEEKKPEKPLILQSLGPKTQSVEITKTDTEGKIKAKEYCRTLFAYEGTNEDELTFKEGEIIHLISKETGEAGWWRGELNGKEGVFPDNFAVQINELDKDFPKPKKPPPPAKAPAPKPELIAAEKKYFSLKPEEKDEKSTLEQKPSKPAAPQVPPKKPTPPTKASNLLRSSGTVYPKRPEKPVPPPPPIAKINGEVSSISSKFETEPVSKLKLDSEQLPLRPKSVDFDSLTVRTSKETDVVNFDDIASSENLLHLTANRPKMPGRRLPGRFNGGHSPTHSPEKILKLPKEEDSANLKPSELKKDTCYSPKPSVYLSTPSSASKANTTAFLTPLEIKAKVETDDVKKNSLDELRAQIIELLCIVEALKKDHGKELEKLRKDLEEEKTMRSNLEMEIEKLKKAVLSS
# These are yes or no findings as the source states them, for the method shown. Binding seen in cells or lysates may run through a third protein. Binding can be weak; no strength is given.
# Molecular target: CD2-associated protein (CD2AP) (human) (UniProt Q9Y5K6)
# Assay: co-IP; endosomal protein lysates (non-denatured solubilisation reagent) of APPKO HEK293 cells transfected with APP_(swe695), APP_(K612Q) or APP_(K612T) plasmids; antibody and Protein A agarose beads, 4 °C overnight, washed 3 times with PBS, Western blot; which protein was precipitated not given
row,Substance,binding
1,APP_(K612T) (lactyl-mimicking mutant of APP_(swe695)) (from UniProt P05067-4),binds
2,APP_(K612Q) (delactylation-mimicking mutant of APP_(swe695)) (from UniProt P05067-4),binds
